In PubChem BioAssay AID2685 (National Center for Advancing Translational Sciences (NCATS), 2010):
Hit rate of the full screen: of about 320,000 compounds, about 2,100 (0.66%) were called active. The shares of active, inactive and inconclusive entries below differ from those in the screen. Calls follow the shape of the dose curve; as a rule, active = well fitted inhibition curve with a large enough effect in the signal ratio, with a control signal flat (not every such curve was filed as active); inconclusive = small, poorly fitted or top-dose-only effect, or effect the other way, or a change in a side signal; inactive = flat fitted curve, though single readings scatter; the % refers to the signal ratio. Potencies of inconclusive entries are doubtful fits and often do not repeat.

Assay: qHTS Assay for Lipid Storage Modulators in Drosophila S3 Cells
Details: BODIPY lipid droplet fluorescence, 18-24 h, cells fed with added oleic acid; lipid storage change, negative = inhibition: at 46.1 µM (top of the series) unless noted
Summary of the method: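 Drosophila S3 cells loaded with oleic acid (400 uM, as added) and compounds at several concentrations; lipid droplets imaged by 488-nm laser-scanning cytometry, 500–530 nm intensity and object ratio to cell channel. Percent activity normalized to 20 uM Triacsin C.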
% is scaled to controls: 0 for no effect and ±100 for the full control effect; potency is read from the fitted curve at half-maximal effect.

Row | SMILES | lipid storage change, negative = inhibition | Potency
1 | CCOc1ccc(C(=O)NC(=S)Nc2ccccc2N2CCC(C)CC2)cc1[N+](=O)[O-] | inconclusive: 21% | 
2 | CCCS(=O)(=O)N1CCCC(C(=O)NCCN(CC)c2ccccc2)C1 (centres undefined) | inconclusive: -73.7% | 
3 | COc1cc(C)c(Br)cc1S(=O)(=O)NCc1ccncc1 | inconclusive: -2.17% | 
4 | O=C(NCC(c1ccco1)N1CCc2ccccc21)c1ccccc1 (centres undefined) |  | inconclusive: 13 µM [activator, single point]
5 | O=C(CCc1nnc2ccc(NCc3ccco3)nn12)Nc1cccc(F)c1 |  | inconclusive: 6.51 µM [falling, single point]
6 | COc1ccc(O)c(-c2cc(-c3cccs3)[nH]n2)c1 | inconclusive: -1.59% | 
7 | O=C(c1cc2cc(Cl)ccc2[nH]1)N1CCN(c2ccc(F)cc2)CC1 | inconclusive: 9.56% | 
8 | CCOC(=O)CSc1nc2c(c(=O)[nH]c(=O)n2C)n1Cc1ccccc1 |  | inconclusive: 0.291 µM [falling, partial curve, poor fit]
9 | CCOc1ccc(N2Cc3ccccc3C2)cc1 | inconclusive: 6.16% | 
10 | Cc1cc(Nc2ccc(Cl)cc2)nc(NCc2ccccc2)n1 |  | inconclusive: 29.1 µM [cytotoxic, single point]
11 | O=C(CN1C(=O)C2CC=CCC2C1=O)Nc1ccc(-c2nnc3n2CCCCC3)cc1 (centres undefined) | inconclusive: 84.8% | 
12 | CC1CCCCN1C(=O)c1ccc(C(=O)N2CCCCC2C)cc1 (centres undefined) | inconclusive: -56.7% | 
13 | CCOC(=O)C1=C(CC)Nc2ccccc2N=C1NC(=O)CCN1C(=O)C2CCCCC2C1=O (centres undefined) | inconclusive: 37.3% | 
14 | COCCn1c(C)cc(C(=O)COC(=O)c2cncc(Br)c2)c1C | inconclusive: 26.6% | 
15 | CCOC(=O)c1sc(NC(=S)NC(=O)c2ccccc2)nc1C |  | inconclusive: 0.82 µM [activator, full curve, poor fit]
16 | COc1ccc(/C=C/S(=O)(=O)NCc2ccccc2)cc1OC | inconclusive: -5.29% | 
17 | Cc1ccc(CO/N=C\Cc2snc(Sc3ncc(C(F)(F)F)cc3Cl)c2C#N)cc1 |  | inconclusive: 3.26 µM [falling, full curve]
18 | CCCCNC(=O)CCN1N=C(c2ccccc2)CCC1=O | inconclusive: -24.7% | 
19 | Cc1cc(NC(=O)CSc2nnc(-c3ccc(Br)o3)n2Cc2ccccc2)no1 | inconclusive: -36.6% | 
20 | CCOc1ccc(NC(=O)CN(C)C(=O)c2ccncc2)cc1OCC | inconclusive: 244% | 
21 | CS(=O)(=O)N1N=C(c2cccs2)CC1c1ccccc1O (centres undefined) | inconclusive: 30.6% | 
22 | CCN(CCNc1ccc(Cl)cc1[N+](=O)[O-])C(=O)c1cc([N+](=O)[O-])c(N(C)C)cc1OC | inconclusive: 35.3% | 
23 | CCC(C)CCN1C(N(C)C)=NC[C@@H]1C (some centres undefined) |  | inconclusive: 6.51 µM [activator, partial curve, poor fit]
24 | CCc1ccc(C(c2c(C)nn(-c3ccccc3)c2N)c2c(C)nn(-c3ccccc3)c2N)cc1 | inconclusive: 6.13% | 
25 | O=C(c1cccc2ccccc12)C1CCCN(C(=O)c2ccc(N3CCOCC3)cc2)C1 (centres undefined) | inconclusive: -0.801% | 

Row | SMILES | lipid storage change, negative = inhibition | Potency
26 | COc1ccccc1CN1C(=O)C2CC=CCC2C1=O (centres undefined) | inconclusive: 106% | 
27 | Cc1ccc(/C=C(\C#N)c2nn(-c3ccccc3)c(N)c2C#N)cc1 | inconclusive: -1.39% | 
28 | O=C(NC1CCCCC1)c1cc(-c2ccccn2)nc2ccccc12 | inconclusive: 22% | 
29 | Cc1cccc(CSCC(=O)NCc2ccc(S(N)(=O)=O)cc2)c1 | inconclusive: -16.3% | 
30 | Cc1cccc(C)c1N(CC(=O)N1CCN(C)CC1)S(C)(=O)=O |  | inconclusive: 3.66 µM [falling, full curve]
31 | O=C(c1ccc2c(c1)OCO2)N1CCN(c2ncccn2)CC1 |  | inconclusive: 6.51 µM [activator, partial curve, poor fit]
32 | Cn1ncc2c(Nc3cc(Cl)cc(Cl)c3)ncnc21 | inconclusive: -40.8% | 
33 | CCCOc1ccc(OCCOCCN2CCc3ccccc3C2)cc1 | inconclusive: 19.3% | 
34 | COc1ccc(NC(=O)CSc2nnc(-c3ccccc3)n2Cc2ccco2)c(OC)c1 |  | inconclusive: 0.164 µM [activator, full curve, poor fit]
35 | C=CCn1c(SCC(=O)Nc2cccc(S(N)(=O)=O)c2)nnc1C1CCCCC1 | inconclusive: -59% | 
36 | Cc1ccccc1-n1nc2c(c1NC(=O)C1CCCC1)CS(=O)(=O)C2 |  | inconclusive: 6.51 µM [falling, single point]
37 | Cc1ccc(S(=O)(=O)N/N=C/c2ccc3nccnc3c2)cc1 | inactive: 9.08% | 
38 | Cc1cccc2[nH]c3c(N4CCN(C(=O)c5ccco5)CC4)ncnc3c12 |  | inconclusive: 0.461 µM [falling, full curve]
39 | Cc1ccc(CNC(=O)CC(C)S(=O)(=O)c2ccc3c(c2)NC(=O)CS3)o1 (centres undefined) |  | inconclusive: 29.1 µM [activator, single point]
40 | COc1ccc(N(CC(=O)NCc2ccco2)C(=O)CCC(=O)Nc2nccs2)cc1 | inconclusive: 31.3% | 
41 | Cc1ccc(NC(=O)Cn2c(/C=C/c3ccccc3)nc3ccccc32)cc1C |  | inconclusive: 3.66 µM [activator, partial curve, poor fit]
42 | Cc1ccc(SCCC(=O)NCCSCc2ccccc2C)cc1 | inconclusive: 7.88% | 
43 | Cc1ccc(-c2nn3c(C)nnc3s2)cc1NC(=O)c1ccc(-c2cccc(Cl)c2)o1 |  | inconclusive: 2.06 µM [activator, single point]
44 | CCc1noc(C)c1C(=O)OCC(=O)NCCc1ccc(OC)cc1 | inconclusive | 
45 | COc1cccc(/C(O)=C/c2nc3ccc(C(=O)NCCc4ccc(Cl)cc4)cc3[nH]c2=O)c1 | inconclusive: 13.1% | 
46 | COc1cc(NC(=S)N2CCCC(CO)C2)c(OC)cc1Cl (centres undefined) | inconclusive: -5.7% | 
47 | O=C(/C=C\c1cccs1)c1c(O)ccc2ccc(=O)oc12 |  | inconclusive: 29.1 µM [falling, single point]
48 | CC(=O)NC1(C(F)(F)F)N=C(c2ccccc2)NC1=O (centres undefined) | inconclusive: 10.5% | 
49 | CN1C(=O)CSc2ccc(C(=O)O)cc21 |  | inconclusive: 29.1 µM [falling, single point]

Exported with each value named: 3 of the compounds above.
CCN(CCNc1ccc(Cl)cc1[N+](=O)[O-])C(=O)c1cc([N+](=O)[O-])c(N(C)C)cc1OC
  lipid storage change, negative = inhibition: inconclusive: 35.3%
Cc1ccc(CNC(=O)CC(C)S(=O)(=O)c2ccc3c(c2)NC(=O)CS3)o1 (centres undefined)
  Potency: inconclusive: 29.1 µM [activator, single point]
CCc1noc(C)c1C(=O)OCC(=O)NCCc1ccc(OC)cc1
  lipid storage change, negative = inhibition: inconclusive
